The campaign covered roughly 140,000 compounds. About 4,300 (3.1%) were called active. This list was built around the results that the source calls inconclusive (neither active nor inactive); the mix of calls is not that of the screen.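 How the source made its calls: active means readout at or below -70, meaning at least 70% loss of cells showing the perinucleolar compartment, a nuclear body marking cancer cells; inconclusive means readout between -30 and a set limit; inactive means the rest.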
Assay: High Content Assay for Compounds that inhibit the Assembly of the Perinucleolar Compartment;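 further: plate controls were DMSO wells for no effect and camptothecin positive control wells for full effect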
Conditions: PC3M PTB-GFP, PNC prevalence imaging, 16 h; at 10 µM; stronger effect = lower value
Summary of the method: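 Compounds are pinned in duplicate onto adhered PC3M cells stably expressing GFP-tagged PTB and incubated 16 h at 37 C. Cells are then fixed, nuclei stained with Hoechst, and PNC-positive cells counted.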

Structure (SMILES) | activity change (PNC), negative = inhibition
Cc1sc2nc(C3CC3)nc(SCC(=O)N3c4ccccc4CC3C)c2c1C (stereo unspecified) | active: -108%
Cn1nc(-c2ccc(Cl)cc2)c2cc(C(=O)NCCCN3CCOCC3)sc21 | inconclusive: -40.5%
O=C(Oc1cccc(Nc2ncnc3ccccc23)c1)c1ccccc1Cl | inconclusive: -46.7%
O=C(O)Cn1cc2c(n1)CCCCC2 | inconclusive: -37.6%
COc1ccc(S(=O)(=O)Nc2ccc(O)c(Sc3ncn[nH]3)c2)cc1 | inactive: 276%
Cc1cccc(OCCCC(=O)Nc2ccccc2C(F)(F)F)c1 | inconclusive: -46.3%
O=S(=O)(c1ccc(Cl)s1)N1CCN(Cc2ccccc2)CC1 | active: -82.9%
COc1cc(/C(C)=N\NC(N)=S)cc(OC)c1OC | inconclusive: -39.3%
CCOC(=O)C1C(c2cc(OC)c(OC)c(OC)c2)NC(=S)NC1(O)C(F)(F)F (stereo unspecified) | inconclusive: -68.1%
CCn1cc(CNC(=O)C2C3CCC(C3)C2C(=O)O)cn1 (stereo unspecified) | inconclusive: -30.4%
Cc1ccc2c(c1)C=CC(C)(C)S2=O (stereo unspecified) | inactive: 23%
Cc1ccc(S(=O)(=O)NCCCNS(C)(=O)=O)cc1 | inconclusive: -32.1%
CCOC(=O)c1c(C)c(C(=O)NCc2ccc3c(c2)OCO3)c(C)n1CC | inactive: 40.8%
O=S(=O)(Cc1cc(Oc2ccccc2)nc(-c2ccccc2)n1)c1ccccc1 | active: -102%
COc1ccc(CNc2n[nH]c(NCc3ccc(OC)c(OC)c3)n2)cc1OC | inconclusive: -40%
Cc1ccc(-n2nnnc2SCC(=O)c2cc(C)n(CC3CCCO3)c2C)cc1 (stereo unspecified) | inactive: -3.78%
CCOC(=O)N1C2C=C(C)[C@@H]2[C@@H]2CC(=O)N21 (stereo partly specified) | inconclusive: -55.7%
O=C(c1ccc(-n2cccc2)cc1)N1CCN(Cc2ccccc2)CC1 | inactive: 23.9%
COc1ccc2cnn(Cc3ccccc3)c(=O)c2c1OC | inactive: -26.6%
COc1cc(/C=N/Nc2nn3cnnc3c3ccccc23)ccc1O | inactive: -8.65%
Cc1ccc(C2C(C(=O)c3sc(C)nc3C)=C(O)C(=O)N2CCN(C)C)o1 (stereo unspecified) | inactive: 43.8%
Cc1ccc(C)c(N2CCN(C(=O)CCCCn3c(=O)[nH]c4ccccc4c3=O)CC2)c1 | inconclusive: -35%
O=C(/C=C/c1ccccc1)c1ccccn1 | inactive: 110%

Structure (SMILES) | activity change (PNC), negative = inhibition
COCCn1nnnc1C(c1cccs1)N1CCN(c2cccc(C(F)(F)F)c2)CC1 (stereo unspecified) | inconclusive: -57.1%
CC(Sc1n[nH]c(N)n1)C(=O)C12CC3CC(CC(C3)C1)C2 (stereo unspecified) | inactive: 30.7%
Cc1sc2ncnc(NCc3ccccc3)c2c1C | inactive: 29.3%
Cc1ccc(C(=O)NNS(=O)(=O)c2ccccc2[N+](=O)[O-])cc1 | inactive: 28%
CCC(N=c1cc(-c2ccc(OC)c(OC)c2)oc2ccc(C)cc12)C(=O)O (stereo unspecified) | inconclusive: -50.4%
Cc1cc(S(=O)(=O)N2CCN(c3ccccc3O)CC2)c(C)s1 | inactive: 39.8%
Cc1ccccc1Cn1ccc(-c2ccc(Cl)cc2)c(C#N)c1=O | inconclusive: -60%
CCOc1cc(C2C(C(=O)c3ccco3)=C(O)C(=O)N2CCc2ccccc2)ccc1O (stereo unspecified) | inactive: 9.78%
CC(c1ccccc1)N1C(=O)c2ccc(C(=O)NCc3ccco3)cc2C1=O (stereo unspecified) | inactive: 17.8%
O=C(CCC1CCCCC1)NC1=NCCS1 | active: -88.9%
COc1ccc(-n2c(SCC(=O)NCc3ccco3)nnc2-c2c[nH]c3ccccc23)cc1 | inconclusive: -75.4%
COc1ccccc1NC(C)C(=O)Nc1ccc(C(C)=O)cc1 (stereo unspecified) | inactive: -21.7%
O=C(Nc1ccc(Cl)cc1)C1CCCN(S(=O)(=O)c2cnc[nH]2)C1 (stereo unspecified) | inconclusive: -36.5%
COc1ccc(C(=O)C2CCN(C(=O)c3ccc(C)cc3)CC2)cc1 | inactive: 6.72%
COc1ccc(N(C(=O)c2ccccc2C)S(=O)(=O)c2cccs2)cc1 | active: -96.7%
O=S(=O)(N1CCCCC1)N1CCN(CC(O)COc2ccc3cc(Br)ccc3c2)CC1 (stereo unspecified) | inactive: -17.5%
Cc1ccc(S(=O)(=O)NC(c2ccccc2)C(C)C(=O)n2nc(C)cc2C)cc1 (stereo unspecified) | inconclusive: -61.6%
Cc1ccc(C(=O)Nc2ccc(Cl)cn2)cc1S(=O)(=O)N1CCOCC1 | inconclusive: -66.4%
CCCS(=O)(=O)N1CCCC(C(=O)NCCc2ccc(OC)c(OC)c2)C1 (stereo unspecified) | active: -92%
Cc1ccc(-n2ncc3c(N4CCCC4)ncnc32)c(C)c1 | inconclusive: -39.6%
Cc1ccc(-c2nnc3ccc(SCC(=O)N4CCCc5ccccc54)nn23)cc1 | inactive: 15.9%
O=C(NCC1CCCO1)c1c(O)c2cccc3c2n(c1=O)CC3 (stereo unspecified) | inconclusive: -49.2%
COc1cccc(NC(=S)N2CCC(N(C)CC3CCCO3)CC2)c1 (stereo unspecified) | inconclusive: -39.6%

Structure (SMILES) | activity change (PNC), negative = inhibition
COc1cccc2c(=O)n(CC(=O)Nc3ccccc3F)ccc12 | inconclusive: -59.8%
CCOC(=O)C1CCN(C(=O)C(C)Sc2ccc(Cl)cc2)CC1 (stereo unspecified) | inactive: -11.6%
S=c1[nH]nc(-c2ccc(Br)o2)n1Cc1ccccc1 | inactive: -11.4%
CN1C(=O)c2oc3ccccc3c(=O)c2C1c1ccccn1 (stereo unspecified) | inconclusive: -60%
CCN(CC)CCCn1c(=S)[nH]c2cc(OC)c(OC)cc2c1=O | inconclusive: -45.2%
COC(=O)c1cccc(NC(=O)c2cccc(OC)c2)c1 | inconclusive: -35%
CCOC(=O)C(C)Sc1nnc2n1C(C)(C)Cc1ccccc1-2 (stereo unspecified) | active: -100%
O=C1c2ccccc2C(=O)N1CCc1nc2ccccc2c(=O)n1CCCn1ccnc1 | inactive: -11%
CSc1ccccc1NC(=O)c1ccccc1N(Cc1ccccc1)S(C)(=O)=O | inconclusive: -50.6%
CCSC1=N/C(=C\c2cccc(F)c2)C(=O)S1 | inconclusive: -44.7%
O=C(NC(c1ccccc1)c1ccccc1)c1cccc(S(=O)(=O)NCc2ccccc2)c1 | inactive: 22.3%
CC1(C)NC(=O)N(CC(O)CN2C(=O)CCC2=O)C1=O (stereo unspecified) | inconclusive: -32.3%
CCn1c(CNC(=O)c2ccc(OC)c(OC)c2)nnc1SCC(=O)c1ccc(OC)cc1 | inconclusive: -55.4%
COc1ccc(C(=O)Nc2ccc(CN3CCOCC3)cc2)cc1 | inactive: -12.7%
COc1ccc(CCNC(=O)c2cnn3ccccc23)c(OC)c1OC | inconclusive: -35.6%
Cc1ccc(S(=O)(=O)CCC(=O)Nc2nccs2)cc1 | inactive: 18.1%
COc1ccc(CC(=O)Nc2ccc(S(=O)(=O)Nc3cc(C)on3)cc2)cc1OC | inactive: 12%
O=C(COC(=O)c1ccccc1Br)NCCc1ccc(F)cc1 | inconclusive: -63.4%
CCCn1cnc2c(sc3nc4c(cc32)CSC(C)(C)C4)c1=O | inconclusive: -31.9%
CCCCn1c(CNC(=O)CC)nc2ccccc21 | inconclusive: -44.6%
Cc1ccc(-n2[nH]c(C)c(C=Nc3ccc(S(=O)(=O)Nc4nc(C)cc(C)n4)cc3)c2=O)c(C)c1 | inconclusive: -30.3%
CCCn1c(=O)c(C(=O)NCc2ccncc2)c(O)c2ccccc21 | inactive: 30.5%
CCC(=O)N1c2ccc(S(=O)(=O)CCC(=O)NCc3cccs3)cc2CC1C (stereo unspecified) | inconclusive: -49.8%

Structure (SMILES) | activity change (PNC), negative = inhibition
Cc1nn(Cc2ccc(Cl)cc2)c(C)c1NC(=O)CCCn1nc(C)c([N+](=O)[O-])c1C | inactive: 25.5%
O=C(Cn1c(=O)oc2cc(S(=O)(=O)N3CCOCC3)ccc21)N1CCc2ccccc2C1 | inactive: 1.09%
COc1ccc(-n2nc3c(c2NC(=O)C2CCCC2)CS(=O)C3)cc1 (stereo unspecified) | inactive: 4.63%
O=C(O)CCCNC(=O)c1cncc(Br)c1 | inconclusive: -35.9%
Cc1cc(C(=O)NCc2ccco2)cs1 | inconclusive: -56.1%
CC(Oc1ccc(Cl)cc1Cl)C(=O)NCc1ccncc1 (stereo unspecified) | inconclusive: -50.5%
O=C(COc1ccc(S(=O)(=O)N2CCCCC2)cc1)NCc1cccnc1 | inactive: 12.5%
CC(C)CCNC(=O)[C@@H](NC(=O)c1c(F)cccc1F)C(C)C | inconclusive: -32.4%
CCOC(=O)c1c(C)[nH]c(C2=NNC(=Nc3ccccc3)SC2)c1C | inactive: 85.8%
CCn1c2ccccc2c2nc3cc(OC)c(OC)cc3nc21 | inconclusive: -62.6%
Cn1cccc1C(=O)NS(=O)(=O)c1ccccc1Cl | inconclusive: -37.8%
O=C(Nc1cccc(C(F)(F)F)c1)c1cc(-c2cccs2)on1 | inconclusive: -48%
O=C(c1cccs1)N1N=C(c2ccc(O)cc2)CC1c1ccccc1 (stereo unspecified) | inactive: 52.9%
COc1cc(C(=O)N2CCN(c3cc(Cl)ccc3Cl)CC2)cc(OC)c1OC | active: -88.2%
COc1cc(OC)c(C2N(c3ccccn3)C(=O)C3CCCN32)cc1OC (stereo unspecified) | inactive: -12.2%
CS(=O)(=O)N1CCc2cc(-c3csc(NC(=O)C(c4ccccc4)c4ccccc4)n3)ccc21 | inactive: 47.8%
COc1ccc(OC)c(NC(=O)CN2C(=O)C3(OCCCO3)c3ccccc32)c1 | inactive: 44.3%
CCOC(=O)c1sc2nc(CC(=O)OC)nc(NCC(=O)OC)c2c1C | inconclusive: -41.9%
O=C1CC(N(CCc2ccccc2)C(=S)Nc2ccccc2)C(=O)N1c1ccccc1 (stereo unspecified) | inconclusive: -60.6%
O=C(NCc1nc2ccccc2[nH]1)c1cccc(S(=O)(=O)N2CCCC2)c1 | inactive: 5.02%
O=c1[nH]c2ccc(S(=O)(=O)N3CCN(c4ccccc4F)CC3)cc2s1 | inconclusive: -52.8%
c1ccc(Cn2c(SCCN3CCOCC3)nnc2-c2cccnc2)cc1 | inconclusive: -34.3%

A portion from further up, for reference:
Structure (SMILES) | activity change (PNC), negative = inhibition
COc1cccc2c(=O)n(CC(=O)Nc3ccccc3F)ccc12 | inconclusive: -59.8%
CCOC(=O)C1CCN(C(=O)C(C)Sc2ccc(Cl)cc2)CC1 (stereo unspecified) | inactive: -11.6%
S=c1[nH]nc(-c2ccc(Br)o2)n1Cc1ccccc1 | inactive: -11.4%

From PubChem BioAssay AID2417 (National Center for Advancing Translational Sciences (NCATS), 2010)
